Consider six molecules from article PMC9944270.

Chains of the proteins cited; added tags and fusions are not shown. Lines headed by an entry give the natural chain unless they say otherwise; changes in a name come on top. A line that says so, or that is headed by a name, gives the form on record, which may keep a tag or linker. Residues count along the entry.
UniProt Q9NZQ7, residues 19-290: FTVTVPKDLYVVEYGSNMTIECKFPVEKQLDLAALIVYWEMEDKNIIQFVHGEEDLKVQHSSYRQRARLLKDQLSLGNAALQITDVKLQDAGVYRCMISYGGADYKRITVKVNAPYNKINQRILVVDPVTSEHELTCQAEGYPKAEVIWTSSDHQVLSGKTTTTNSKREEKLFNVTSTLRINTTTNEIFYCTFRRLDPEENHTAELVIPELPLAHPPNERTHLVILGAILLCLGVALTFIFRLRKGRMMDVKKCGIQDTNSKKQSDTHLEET
UniProt P20339: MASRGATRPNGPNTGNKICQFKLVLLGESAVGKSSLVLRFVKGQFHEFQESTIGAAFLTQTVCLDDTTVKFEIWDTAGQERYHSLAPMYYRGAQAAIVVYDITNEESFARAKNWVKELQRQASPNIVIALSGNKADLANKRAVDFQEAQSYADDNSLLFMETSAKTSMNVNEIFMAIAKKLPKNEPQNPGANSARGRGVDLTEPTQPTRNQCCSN
UniProt P51149: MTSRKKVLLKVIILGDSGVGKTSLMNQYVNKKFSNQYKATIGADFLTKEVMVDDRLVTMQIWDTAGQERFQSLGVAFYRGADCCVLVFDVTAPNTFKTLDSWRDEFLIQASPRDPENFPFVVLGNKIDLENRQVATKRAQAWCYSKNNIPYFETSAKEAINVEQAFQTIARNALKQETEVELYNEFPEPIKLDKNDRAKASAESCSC
UniProt O14964: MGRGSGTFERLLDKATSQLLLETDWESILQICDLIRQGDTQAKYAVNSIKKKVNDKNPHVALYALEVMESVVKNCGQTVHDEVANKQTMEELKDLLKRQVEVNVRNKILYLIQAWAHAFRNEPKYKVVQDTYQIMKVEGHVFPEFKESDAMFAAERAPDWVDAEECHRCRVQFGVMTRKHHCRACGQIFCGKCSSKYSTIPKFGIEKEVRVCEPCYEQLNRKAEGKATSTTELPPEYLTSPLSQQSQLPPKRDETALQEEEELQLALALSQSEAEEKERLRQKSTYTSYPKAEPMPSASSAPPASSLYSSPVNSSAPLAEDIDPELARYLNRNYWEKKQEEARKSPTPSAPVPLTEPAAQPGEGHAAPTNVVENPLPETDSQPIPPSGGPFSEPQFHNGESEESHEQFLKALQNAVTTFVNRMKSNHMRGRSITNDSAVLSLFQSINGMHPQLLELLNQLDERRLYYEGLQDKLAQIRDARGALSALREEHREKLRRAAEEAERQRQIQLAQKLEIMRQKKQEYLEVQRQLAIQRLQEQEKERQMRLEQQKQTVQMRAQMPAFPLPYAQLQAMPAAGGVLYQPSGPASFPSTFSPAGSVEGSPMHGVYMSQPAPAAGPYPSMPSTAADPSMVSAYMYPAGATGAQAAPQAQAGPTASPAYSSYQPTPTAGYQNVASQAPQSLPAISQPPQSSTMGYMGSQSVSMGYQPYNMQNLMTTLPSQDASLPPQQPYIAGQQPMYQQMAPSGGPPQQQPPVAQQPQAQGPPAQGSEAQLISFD
UniProt Q96J02: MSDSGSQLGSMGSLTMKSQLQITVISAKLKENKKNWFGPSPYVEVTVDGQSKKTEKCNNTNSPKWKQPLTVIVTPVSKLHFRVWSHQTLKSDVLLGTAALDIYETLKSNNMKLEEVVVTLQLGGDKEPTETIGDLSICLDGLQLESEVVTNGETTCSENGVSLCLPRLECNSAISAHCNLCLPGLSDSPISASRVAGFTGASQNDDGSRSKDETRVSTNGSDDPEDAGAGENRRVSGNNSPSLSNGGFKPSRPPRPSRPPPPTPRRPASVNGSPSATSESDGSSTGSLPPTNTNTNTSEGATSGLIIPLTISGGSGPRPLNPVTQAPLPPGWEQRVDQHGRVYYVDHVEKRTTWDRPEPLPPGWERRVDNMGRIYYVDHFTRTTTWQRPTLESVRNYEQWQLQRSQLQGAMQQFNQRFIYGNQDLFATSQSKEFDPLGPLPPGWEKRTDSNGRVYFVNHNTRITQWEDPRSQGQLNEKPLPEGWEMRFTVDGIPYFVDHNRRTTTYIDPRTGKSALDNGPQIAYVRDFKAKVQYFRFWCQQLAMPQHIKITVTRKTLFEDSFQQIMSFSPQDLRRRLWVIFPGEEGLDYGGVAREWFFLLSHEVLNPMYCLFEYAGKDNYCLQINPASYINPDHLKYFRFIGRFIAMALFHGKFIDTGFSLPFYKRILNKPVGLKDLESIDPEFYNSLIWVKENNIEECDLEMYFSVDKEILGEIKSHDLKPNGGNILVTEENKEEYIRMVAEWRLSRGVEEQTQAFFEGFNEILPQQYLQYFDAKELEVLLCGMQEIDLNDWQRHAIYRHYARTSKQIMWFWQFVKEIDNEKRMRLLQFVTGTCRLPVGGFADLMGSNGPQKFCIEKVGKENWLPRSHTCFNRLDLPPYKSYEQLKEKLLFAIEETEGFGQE
HECT ubiquitin ligase AIP4, ectopically expressed (Q96J02-2, form named): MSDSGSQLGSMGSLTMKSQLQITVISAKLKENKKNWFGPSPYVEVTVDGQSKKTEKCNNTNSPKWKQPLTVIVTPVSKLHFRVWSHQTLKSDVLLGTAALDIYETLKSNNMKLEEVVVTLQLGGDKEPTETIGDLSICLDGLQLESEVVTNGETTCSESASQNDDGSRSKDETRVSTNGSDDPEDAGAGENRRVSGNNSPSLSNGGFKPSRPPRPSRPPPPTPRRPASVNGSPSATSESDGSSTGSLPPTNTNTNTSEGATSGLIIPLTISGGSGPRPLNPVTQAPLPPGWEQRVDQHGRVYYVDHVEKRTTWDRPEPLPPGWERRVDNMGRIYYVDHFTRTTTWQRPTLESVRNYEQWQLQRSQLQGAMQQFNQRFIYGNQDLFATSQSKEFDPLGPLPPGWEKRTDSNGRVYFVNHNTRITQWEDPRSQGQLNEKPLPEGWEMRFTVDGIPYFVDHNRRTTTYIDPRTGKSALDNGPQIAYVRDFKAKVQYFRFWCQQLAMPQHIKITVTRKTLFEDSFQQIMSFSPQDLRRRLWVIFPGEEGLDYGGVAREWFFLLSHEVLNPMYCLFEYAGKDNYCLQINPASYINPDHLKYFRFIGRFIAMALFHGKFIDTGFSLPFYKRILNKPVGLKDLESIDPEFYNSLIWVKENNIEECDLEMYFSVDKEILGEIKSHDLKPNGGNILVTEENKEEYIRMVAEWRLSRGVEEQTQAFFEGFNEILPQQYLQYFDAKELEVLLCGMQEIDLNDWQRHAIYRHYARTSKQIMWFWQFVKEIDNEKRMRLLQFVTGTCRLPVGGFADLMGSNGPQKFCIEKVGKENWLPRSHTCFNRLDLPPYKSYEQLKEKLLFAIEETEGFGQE

Results are given in words; binding and its absence hold for the method and conditions named. Binding seen in cells or lysates may run through a third protein. Some entries that bind do so weakly or less than the wild type.

In experiment [1] the target is PD-L1, ectopically expressed (human) (UniProt Q9NZQ7). Description: co-IP; screen of several E3 ligases reported to regulate membrane protein monoubiquitination, against PD-L1 (Supplementary Fig. S5a); cells not given.
For experiment [2] the target is unchanged. Description: co-IP; ectopically expressed proteins in 293 T; lysis in IP buffer (150 mM NaCl, 20 mM HEPES pH 7.4, 1% Triton X-100); antibody with protein A or G dynabeads or Flag magnetic beads; immunoblot; AIP4 with PD-L1 was tested with or without MTSS1 overexpression. A general note: A western blot detects proteins with antibodies after separation by electrophoresis.

Experiment [3] shares this target. Description: co-IP; reciprocal co-immunoprecipitation of ectopically expressed proteins; multiple cell lines, not named (Supplementary Fig. S5b, c).
Experiment [4] deals with T1, MTSS I-BAR domain containing 1 (MTSS1), ectopically expressed (human) (UniProt O43312).
T1 sequence: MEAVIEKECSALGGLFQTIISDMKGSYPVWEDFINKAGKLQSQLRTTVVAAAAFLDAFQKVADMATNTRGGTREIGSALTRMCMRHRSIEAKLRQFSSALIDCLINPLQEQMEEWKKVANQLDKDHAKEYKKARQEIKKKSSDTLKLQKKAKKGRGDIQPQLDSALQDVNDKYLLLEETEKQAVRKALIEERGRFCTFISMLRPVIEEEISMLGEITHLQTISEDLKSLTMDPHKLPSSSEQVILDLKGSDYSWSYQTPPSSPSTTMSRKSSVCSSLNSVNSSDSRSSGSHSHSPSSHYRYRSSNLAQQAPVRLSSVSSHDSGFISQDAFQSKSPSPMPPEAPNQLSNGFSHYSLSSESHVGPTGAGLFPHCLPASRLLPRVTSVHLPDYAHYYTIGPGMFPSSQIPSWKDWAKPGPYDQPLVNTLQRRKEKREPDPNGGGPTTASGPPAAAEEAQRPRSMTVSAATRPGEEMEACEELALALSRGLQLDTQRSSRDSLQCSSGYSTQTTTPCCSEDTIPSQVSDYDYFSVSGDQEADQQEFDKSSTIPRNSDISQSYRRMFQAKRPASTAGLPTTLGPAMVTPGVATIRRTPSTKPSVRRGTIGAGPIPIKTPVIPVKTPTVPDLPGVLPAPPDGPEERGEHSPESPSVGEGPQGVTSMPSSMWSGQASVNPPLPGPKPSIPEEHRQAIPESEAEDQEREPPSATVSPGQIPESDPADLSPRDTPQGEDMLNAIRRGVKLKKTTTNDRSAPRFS
Description: co-IP; ectopically expressed proteins in 293 T; lysis in IP buffer (150 mM NaCl, 20 mM HEPES pH 7.4, 1% Triton X-100); antibody with protein A or G dynabeads or Flag magnetic beads; immunoblot; AIP4 with PD-L1 was tested with or without MTSS1 overexpression.

The target in experiment [5] is PD-L1 (whether ectopic or endogenous is not stated for the experiment) (UniProt Q9NZQ7). Description: co-IP; CMTM6 with PD-L1, tested for an effect of MTSS1 (Supplementary Fig. S4a); cells not given.
For the next experiment, the target named is RAB5A (human) (UniProt P20339). Briefly: co-IP; ectopically expressed proteins in 293 T; lysis in IP buffer (150 mM NaCl, 20 mM HEPES pH 7.4, 1% Triton X-100); antibody with protein A or G dynabeads or Flag magnetic beads; immunoblot; AIP4 with PD-L1 was tested with or without MTSS1 overexpression.
For experiment [6], the target named is PD-L1, ectopically expressed (human) (UniProt Q9NZQ7). Described as above. This is another data set of the same source.
The next experiment deals with RAB7A (human) (UniProt P51149). The description is as above.
The target of another experiment is HRS (human) (UniProt O14964). Described as above.
Experiment [7] addresses PD-L1, endogenous (human (endogenous in H1975)) (UniProt Q9NZQ7). Briefly: co-IP; endogenous proteins in H1975 lysate; immunoblot.
In experiment [8] the target is PD-L1 (whether ectopic or endogenous is not stated for the experiment) (UniProt Q9NZQ7). Description: co-IP; sequential immunoprecipitation (Supplementary Fig. S5j); order of the precipitations and cells not stated.
The target of experiment [9] is AIP4 (whether ectopic or endogenous is not stated for the experiment) (not stated (human or mouse cDNA cloned)) (UniProt Q96J02). The description is as above.
Experiment [10] shares this target. Description: co-IP; in cancer cells (Supplementary Fig. S5d, e); ectopic or endogenous not stated.
The target of experiment [11] is PD-L1 (whether ectopic or endogenous is not stated for the experiment) (UniProt Q9NZQ7). Briefly: co-IP; MTSS1 with PD-L1 after KRAS G12C overexpression or EGF treatment (Supplementary Fig. S7h); cells not given.

For the molecule “HECT ubiquitin ligase AIP4, ectopically expressed (from UniProt Q96J02-2 1-862) (enzyme)”, the binding result in experiment [1], in experiment [2] and in experiment [3] was “binds” throughout.

As for “PD-L1, ectopically expressed (from UniProt Q9NZQ7 19-290)”, the binding result in [4] is listed as “binds”.

B1: CMTM6 (protein, UniProt Q9NX76 1-183)
chain: MENGAVYSPTTEEDPGPARGPRSGLAAYFFMGRLPLLRRVLKGLQLLLSLLAFICEEVVSQCTLCGGLYFFEFVSCSAFLLSLLILIVYCTPFYERVDTTKVKSSDFYITLGTGCVFLLASIIFVSTHDRTSAEIAAIVFGFIASFMFLLDFITMLYEKRQESQLRKPENTTRAEALTEPLNA
In the case of B1, in [5], the binding entry is on record as “binds”.

B2: MTSS I-BAR domain containing 1 (MTSS1), ectopically expressed (protein, UniProt O43312 1-755)
chain: MEAVIEKECSALGGLFQTIISDMKGSYPVWEDFINKAGKLQSQLRTTVVAAAAFLDAFQKVADMATNTRGGTREIGSALTRMCMRHRSIEAKLRQFSSALIDCLINPLQEQMEEWKKVANQLDKDHAKEYKKARQEIKKKSSDTLKLQKKAKKGRGDIQPQLDSALQDVNDKYLLLEETEKQAVRKALIEERGRFCTFISMLRPVIEEEISMLGEITHLQTISEDLKSLTMDPHKLPSSSEQVILDLKGSDYSWSYQTPPSSPSTTMSRKSSVCSSLNSVNSSDSRSSGSHSHSPSSHYRYRSSNLAQQAPVRLSSVSSHDSGFISQDAFQSKSPSPMPPEAPNQLSNGFSHYSLSSESHVGPTGAGLFPHCLPASRLLPRVTSVHLPDYAHYYTIGPGMFPSSQIPSWKDWAKPGPYDQPLVNTLQRRKEKREPDPNGGGPTTASGPPAAAEEAQRPRSMTVSAATRPGEEMEACEELALALSRGLQLDTQRSSRDSLQCSSGYSTQTTTPCCSEDTIPSQVSDYDYFSVSGDQEADQQEFDKSSTIPRNSDISQSYRRMFQAKRPASTAGLPTTLGPAMVTPGVATIRRTPSTKPSVRRGTIGAGPIPIKTPVIPVKTPTVPDLPGVLPAPPDGPEERGEHSPESPSVGEGPQGVTSMPSSMWSGQASVNPPLPGPKPSIPEEHRQAIPESEAEDQEREPPSATVSPGQIPESDPADLSPRDTPQGEDMLNAIRRGVKLKKTTTNDRSAPRFS
Regarding B2, the binding result (with RAB5A (human); in [6]; with RAB7A (human); with HRS (human)) was “binds” throughout.

B3: MTSS1, endogenous in H1975 (protein, UniProt O43312 1-755)
chain: MEAVIEKECSALGGLFQTIISDMKGSYPVWEDFINKAGKLQSQLRTTVVAAAAFLDAFQKVADMATNTRGGTREIGSALTRMCMRHRSIEAKLRQFSSALIDCLINPLQEQMEEWKKVANQLDKDHAKEYKKARQEIKKKSSDTLKLQKKAKKGRGDIQPQLDSALQDVNDKYLLLEETEKQAVRKALIEERGRFCTFISMLRPVIEEEISMLGEITHLQTISEDLKSLTMDPHKLPSSSEQVILDLKGSDYSWSYQTPPSSPSTTMSRKSSVCSSLNSVNSSDSRSSGSHSHSPSSHYRYRSSNLAQQAPVRLSSVSSHDSGFISQDAFQSKSPSPMPPEAPNQLSNGFSHYSLSSESHVGPTGAGLFPHCLPASRLLPRVTSVHLPDYAHYYTIGPGMFPSSQIPSWKDWAKPGPYDQPLVNTLQRRKEKREPDPNGGGPTTASGPPAAAEEAQRPRSMTVSAATRPGEEMEACEELALALSRGLQLDTQRSSRDSLQCSSGYSTQTTTPCCSEDTIPSQVSDYDYFSVSGDQEADQQEFDKSSTIPRNSDISQSYRRMFQAKRPASTAGLPTTLGPAMVTPGVATIRRTPSTKPSVRRGTIGAGPIPIKTPVIPVKTPTVPDLPGVLPAPPDGPEERGEHSPESPSVGEGPQGVTSMPSSMWSGQASVNPPLPGPKPSIPEEHRQAIPESEAEDQEREPPSATVSPGQIPESDPADLSPRDTPQGEDMLNAIRRGVKLKKTTTNDRSAPRFS
For the molecule B3, in experiment [7], the binding entry is “binds”.

B4: MTSS1 (whether ectopic or endogenous is not stated for the experiment) (protein, UniProt O43312 1-755)
chain: MEAVIEKECSALGGLFQTIISDMKGSYPVWEDFINKAGKLQSQLRTTVVAAAAFLDAFQKVADMATNTRGGTREIGSALTRMCMRHRSIEAKLRQFSSALIDCLINPLQEQMEEWKKVANQLDKDHAKEYKKARQEIKKKSSDTLKLQKKAKKGRGDIQPQLDSALQDVNDKYLLLEETEKQAVRKALIEERGRFCTFISMLRPVIEEEISMLGEITHLQTISEDLKSLTMDPHKLPSSSEQVILDLKGSDYSWSYQTPPSSPSTTMSRKSSVCSSLNSVNSSDSRSSGSHSHSPSSHYRYRSSNLAQQAPVRLSSVSSHDSGFISQDAFQSKSPSPMPPEAPNQLSNGFSHYSLSSESHVGPTGAGLFPHCLPASRLLPRVTSVHLPDYAHYYTIGPGMFPSSQIPSWKDWAKPGPYDQPLVNTLQRRKEKREPDPNGGGPTTASGPPAAAEEAQRPRSMTVSAATRPGEEMEACEELALALSRGLQLDTQRSSRDSLQCSSGYSTQTTTPCCSEDTIPSQVSDYDYFSVSGDQEADQQEFDKSSTIPRNSDISQSYRRMFQAKRPASTAGLPTTLGPAMVTPGVATIRRTPSTKPSVRRGTIGAGPIPIKTPVIPVKTPTVPDLPGVLPAPPDGPEERGEHSPESPSVGEGPQGVTSMPSSMWSGQASVNPPLPGPKPSIPEEHRQAIPESEAEDQEREPPSATVSPGQIPESDPADLSPRDTPQGEDMLNAIRRGVKLKKTTTNDRSAPRFS
In the case of B4, the binding result in experiment [8], in [9], in experiment [10] and in experiment [11] was “binds” each time.
